Experimental data as given in patent US20220144812A1, “QUINOLINE DERIVATIVES AND THEIR USE FOR THE TREATMENT OF CANCER” (Epizyme, Inc., priority 2019, published 2022).

Sequences of proteins named here, by UniProt entry; tags and fusion partners are left off. Residues count along the entry.
UniProt Q92793, 1084-1701 limits assumed: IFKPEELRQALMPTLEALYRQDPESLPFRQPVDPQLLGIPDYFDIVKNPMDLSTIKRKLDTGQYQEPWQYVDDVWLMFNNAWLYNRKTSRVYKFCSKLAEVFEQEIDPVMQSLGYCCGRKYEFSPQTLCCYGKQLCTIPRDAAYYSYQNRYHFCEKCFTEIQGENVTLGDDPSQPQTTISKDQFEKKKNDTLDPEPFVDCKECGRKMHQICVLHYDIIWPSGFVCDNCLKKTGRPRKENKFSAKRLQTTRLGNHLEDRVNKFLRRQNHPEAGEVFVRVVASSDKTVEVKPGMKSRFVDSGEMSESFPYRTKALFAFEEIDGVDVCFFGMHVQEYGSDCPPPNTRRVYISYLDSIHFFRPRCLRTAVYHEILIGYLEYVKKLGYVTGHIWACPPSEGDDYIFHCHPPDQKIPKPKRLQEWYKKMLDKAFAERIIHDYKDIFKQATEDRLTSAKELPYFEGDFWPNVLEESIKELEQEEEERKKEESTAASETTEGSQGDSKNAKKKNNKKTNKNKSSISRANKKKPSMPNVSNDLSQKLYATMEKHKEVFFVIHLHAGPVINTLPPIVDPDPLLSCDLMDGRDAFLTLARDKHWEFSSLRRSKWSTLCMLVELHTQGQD
UniProt Q09472, 1048-1664 limits assumed: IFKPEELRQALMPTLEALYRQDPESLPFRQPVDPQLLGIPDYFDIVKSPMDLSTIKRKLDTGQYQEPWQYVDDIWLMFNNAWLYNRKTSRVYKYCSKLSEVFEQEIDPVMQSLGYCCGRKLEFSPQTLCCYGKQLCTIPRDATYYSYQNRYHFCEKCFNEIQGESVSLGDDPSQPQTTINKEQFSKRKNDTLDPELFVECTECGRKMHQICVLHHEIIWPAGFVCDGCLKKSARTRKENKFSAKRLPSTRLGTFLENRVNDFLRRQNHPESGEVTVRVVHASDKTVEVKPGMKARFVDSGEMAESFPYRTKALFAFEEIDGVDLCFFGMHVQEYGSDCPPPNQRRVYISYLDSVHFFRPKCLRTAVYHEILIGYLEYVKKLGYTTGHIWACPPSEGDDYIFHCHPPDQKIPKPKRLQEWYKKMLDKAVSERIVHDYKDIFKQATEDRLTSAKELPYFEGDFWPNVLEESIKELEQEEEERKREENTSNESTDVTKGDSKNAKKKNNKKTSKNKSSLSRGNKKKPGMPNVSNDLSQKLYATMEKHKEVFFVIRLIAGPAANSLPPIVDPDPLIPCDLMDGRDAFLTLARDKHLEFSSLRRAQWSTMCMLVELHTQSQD

How the values were obtained:
[1] = system: 647V cells; test: High throughput proliferation (HTP) assay; settings: read-out: CREBBP HTP IC50 (micromolar)
Description: The following example describes methods and materials relating to a high throughput proliferation (HTP) assay. IC50 values (micromolar) are summarized in Table 1, Table 2, and Table 3 under the column labeled: “CREBBP HTP IC50 (micromolar).”
MATERIALS: 647V cell line, Dulbecco's MEM, penicillin-streptomycin, heat inactivated fetal bovine serum, D-PBS, and CellTiter-Glo were commercially available.
647V adherent cells were maintained in complete growth medium (Dulbecco's MEM supplemented with 15% v/v heat inactivated fetal bovine serum) and cultured at 37° C. under 5% CO2.
METHOD: Measurement of the effect of compound in High Throughput Proliferation (HTP) assays was performed as follows: Exponentially growing 647V cells were plated, in triplicate, in 384-well plates at the appropriate cell density in a final volume of 50 μl. Cells were incubated in the presence of increasing concentrations of compound. Viable cell number was determined at day 7 by addition of 35 μl CellTiter-Glo to each well of the plate, incubated in the dark for 30 minutes, and read on a PerkinElmer EnVision instrument to enumerate the number of cells.

[2] = molecular target: CREBBP (1084-1701) (Homo sapiens, UniProt Q92793); test: Biochemical assay for CREBBP (1084-1701), SAMDI
Description: The following example describes materials and methods relating to a biochemical assay for CREBBP (1084-1701). IC50 values (micromolar (μM)) are summarized in Table 1, Table 2, and Table 3 under the column labeled: “CREBBP Biochemistry IC50 (micromolar).”
MATERIALS: Reagents 1M Tris pH 8.0, Tween 20 10%, DTT, bovine serum gelatin (BSG) 2%, Peptide #233 (biotin-H3 11-25, K14R, K23R), Acetyl-CoA, CREBBP (1084-1701), formic acid (100%), and sodium bicarbonate were commercially available.
METHODS: The effect of compounds was measured in the following biochemical assay using CREBBP (1084-1701). Enzyme mix 30 μL per well was added using a Multi-drop to wells of prepared Compound Stock plate. The enzyme was incubated in the Compound Stock plate for 30 minutes at room temperature. Substrate mix, 20 μL per well, was added to Compound Stock plate using a Multi-drop. The plate was covered and incubate 30 minutes at room temperature. The reaction was stopped with addition of 5 μL per well of 5% formic acid using a Multi-drop. The plate was Incubated for 30 minutes at room temperature. The reaction mixture was neutralized with addition of 5 μL per well of 10% sodium bicarbonate using a Multi-drop. The plate was Incubated for 35 minutes at room temperature. The reaction mixture was Transferred 2.5 μL per well to a SAMDI biochip. The plate was Incubated for 60 minutes at room temperature. The samples were washed, dried, and matrix applied to SAMDI biochip. The SAMDI biochip was then read on the mass spectrometer.

[3] = molecular target: EP300 (P300(1048-1664)) (Homo sapiens, UniProt Q09472); test: Biochemical assay for EP300, SAMDI; settings: read-out: EP300 Biochemistry IC50 (micromolar)
Description: The following example describes materials and methods relating to a biochemical assay for EP300. IC50 values (micromolar (μM)) are summarized in Table 1, Table 2, and Table 3 under the column labeled: “EP300 Biochemistry IC50 (micromolar).”

[4] = system: H3K18Ac in HB-CLS-2 cells; test: H3K18AC in-cell western (ICW) assay
Description: The following example describes methods and materials relating to an H3K18AC in-cell western assay. IC50 values (micromolar (μM)) are summarized in Table 1, Table 2, and Table 3 under the column labeled: “CREBBP ICW IC50 (micromolar).”
MATERIALS: HB-CLS-2 cell line, DMEM: Ham's F12 medium (1:1 mixture), penicillin-streptomycin, heat inactivated fetal bovine serum, D-PBS, Odyssey blocking buffer, 800CW goat anti-rabbit IgG (H+L) antibody, Licor Odyssey CLx Infrared Scanner, H3K18Ac rabbit monoclonal antibody. DRAQS fluorescent probe solution (5 mM), and 100% methanol were commercially available. HB-CLS-2 adherent cells were maintained in complete growth medium (DMEM: Ham's F12 supplemented with 10% v/v heat inactivated fetal bovine serum) and cultured at 37° C. under 5% CO2.
METHOD: Cell Treatment, ICW for detection of H3K18Ac and DNA content. HB-CLS-2 cells were seeded in assay medium (DMEM: Ham's F12 supplemented with 10% v/v heat inactivated fetal bovine serum and 1% Penicillin/Streptomycin) at a concentration of 80,000 cells per mL in a Poly-D-Lysine coated 384-well culture plates at 50 μL per well. Plates were incubated at room temperature for 30 minutes and then incubated at 37° C., 5% CO2 for additional 16-24 hours. Compounds and DMSO normalization were then added directly to the plates using a D300 Digital Dispenser and returned to the incubator at 37° C., 5% CO2 for 2 hrs. After the incubation, the contents of the plates were discarded into the appropriate waste stream and blotted on laboratory tissue to remove residual liquid. 90 μL per well of 100% ice cold methanol was added to the plates and incubated at room temperature for 15 minutes. Then methanol was then discarded into the appropriate waste stream and the plates again blotted on laboratory tissue to remove residual liquid. Plates were transferred to a Biotek 405 plate washer and washed 3 times with 100 μL per well of wash buffer (1X PBS containing 0.1% Triton X-100 (v/v)). Next, 50 μL per well of Odyssey blocking buffer with 0.1% Tween 20 (v/v) was added to each plate and incubated for 1 hour at room temperature. Blocking buffer was removed and 20 μL of primary antibody were added (α-H3K18Ac diluted 1:800 in Odyssey buffer with 0.1% Tween 20 (v/v)) and plates were incubated overnight (16 hours) at 4° C. Plates were washed 5 times with 100 μL per well of wash buffer. Next 20 μL per well of secondary antibody was added (1:400 800CW goat anti-rabbit IgG (H+L) antibody, 1:2000 DRAQ5 in Odyssey buffer with 0.1% Tween 20 (v/v)) and incubated for 1 hour at room temperature. The plates were washed 3 times with 100 μL per well wash buffer then 3 times with 100 μL per well of water. Plates were allowed to dry at room temperature then imaged on the Licor Odyssey CLx machine which measured integrated intensity at 700 nm and 800 nm wavelengths. Both 700 and 800 channels were scanned.

[5] = read-out: CREBBP Biochemistry IC50 (micromolar)
[6] = read-out: CREBBP ICW IC50 (micromolar)

IC50 ([2]; read-out: CREBBP Biochemistry IC50)	IC50 ([4]; read-out: CREBBP ICW IC50, HB-CLS-2 cells)	SMILES	IC50 [1]	IC50 [2, 5]	IC50 [3]	IC50 [4, 6]
		CCn1ncc(CN(C)C(=O)c2cc(-c3ccc(NCC(C)NC)c(C)n3)nc3ccc(Cl)cc23)c1C (stereo not shown)	0.0656 µM	0.0194 µM	0.0079 µM	0.103 µM
		CCc1ncc(CN(C)C(=O)c2cc(-c3ccc(NCCN(C)C)c(C)n3)nc3ccc(Cl)cc23)n1C [579]		0.0233 µM	0.009 µM	0.136 µM
		CCc1ncc(CN(C)C(=O)c2cc(-c3ccc(NCCN(C)C)c(C)n3)nc3ccc(Cl)cc23)n1C [578]	0.0432 µM	0.042 µM	0.0155 µM	0.104 µM
0.0056 µM	0.71 µM	CCn1ncc(CN(C)C(=O)c2nc(-c3cccc(Cl)c3)nc3ccc(Cl)cc23)c1C [Compound 71]				
		CCn1ncc(CN(C)C(=O)c2cc(-c3ccc(NC4CCOCC4)c(C)n3)nc3ccc(Cl)cc23)c1C	0.127 µM	0.0274 µM	0.0098 µM	0.165 µM
		CNCCNc1ccc(-c2cc(C(=O)N(C)Cc3cnc(C)n3C)c3cc(Cl)ccc3n2)nc1C	0.207 µM	0.0698 µM	0.073 µM	0.301 µM
		CNCCNc1ccc(-c2cc(C(=O)N(C)Cc3cnc(C(C)O)n3C)c3cc(Cl)ccc3n2)nc1C (stereo not shown)	9.33 µM	8.65 µM	9.48 µM	14.2 µM

Where two headings read alike, the source gives them in different places. The match of structure and compound is tentative.
